Results published in publication PMC9852244.
Results are given in words; binding and its absence hold for the method and conditions named. Binding seen in cells or lysates may run through a third protein. Binding calls can cover weak binding; strength is not graded here.

The chains behind the UniProt entries cited, without tags or fusion partners. Where a name states a change or a piece, a line headed by the entry shows the natural chain unless it says otherwise.
UniProt Q60855: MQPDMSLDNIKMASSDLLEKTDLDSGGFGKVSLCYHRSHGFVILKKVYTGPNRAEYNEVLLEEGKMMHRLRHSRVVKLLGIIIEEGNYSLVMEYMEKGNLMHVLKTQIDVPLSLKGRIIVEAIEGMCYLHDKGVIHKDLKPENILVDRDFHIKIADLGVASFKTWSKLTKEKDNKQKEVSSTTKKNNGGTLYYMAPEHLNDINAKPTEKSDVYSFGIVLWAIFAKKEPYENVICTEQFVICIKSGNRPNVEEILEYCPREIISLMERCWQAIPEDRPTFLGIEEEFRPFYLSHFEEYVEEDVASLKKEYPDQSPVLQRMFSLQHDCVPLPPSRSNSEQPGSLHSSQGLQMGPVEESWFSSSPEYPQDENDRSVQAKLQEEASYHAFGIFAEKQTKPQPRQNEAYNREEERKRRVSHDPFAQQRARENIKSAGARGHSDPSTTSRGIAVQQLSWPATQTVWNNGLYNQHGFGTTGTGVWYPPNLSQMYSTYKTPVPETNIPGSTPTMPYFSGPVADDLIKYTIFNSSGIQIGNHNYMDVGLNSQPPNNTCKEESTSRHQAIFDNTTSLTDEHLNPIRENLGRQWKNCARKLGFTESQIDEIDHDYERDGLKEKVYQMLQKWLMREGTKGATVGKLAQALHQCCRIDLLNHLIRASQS
UniProt O14744: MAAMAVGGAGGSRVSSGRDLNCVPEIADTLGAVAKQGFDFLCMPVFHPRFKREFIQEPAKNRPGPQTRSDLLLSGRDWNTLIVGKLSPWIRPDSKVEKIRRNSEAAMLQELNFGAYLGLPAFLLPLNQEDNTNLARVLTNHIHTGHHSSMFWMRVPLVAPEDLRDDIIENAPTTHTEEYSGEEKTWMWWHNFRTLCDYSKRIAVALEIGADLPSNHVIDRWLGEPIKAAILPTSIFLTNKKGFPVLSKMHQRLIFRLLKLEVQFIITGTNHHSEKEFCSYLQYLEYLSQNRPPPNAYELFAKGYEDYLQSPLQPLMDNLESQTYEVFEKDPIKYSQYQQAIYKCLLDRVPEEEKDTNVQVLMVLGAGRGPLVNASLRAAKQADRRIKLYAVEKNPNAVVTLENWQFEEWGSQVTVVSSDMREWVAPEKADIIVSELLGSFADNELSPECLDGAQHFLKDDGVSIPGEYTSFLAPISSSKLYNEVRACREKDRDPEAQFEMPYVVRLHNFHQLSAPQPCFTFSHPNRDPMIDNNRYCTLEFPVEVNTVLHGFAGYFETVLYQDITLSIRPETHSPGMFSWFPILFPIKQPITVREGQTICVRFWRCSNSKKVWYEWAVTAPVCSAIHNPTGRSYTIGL

What was measured:
GST-RIPK1 D138N (mouse) = GST-RIPK1 D138N (mouse) (UniProt Q60855); assay: pull-down; GST-pulldown on glutathione agarose (16 h, 4 °C, beads blocked with 1% BSA) from lysates of HEK293T cells co-transfected with FLAG-PRMT5 and GST-tagged bait; immunoblot; also with Nec-1 treatment of the cells
[1] = biological target: GST-tagged dimerization deficient mutant of mRIPK1 (∆DD, RHIMmut) (mouse) (UniProt Q60855); assay: as above

Substance: 3xFLAG-PRMT5 (from UniProt O14744 1-637)
- binding (GST-RIPK1 D138N (mouse)): binds
- binding [1]: binds
